Experimental findings from the supplement of paper PMC7666118 are described below.

Protein sequences, listed by entry. Tags and fused reporters are not part of them. Lines headed by an entry give the natural chain unless they say otherwise; changes in a name come on top.
UniProt O43175: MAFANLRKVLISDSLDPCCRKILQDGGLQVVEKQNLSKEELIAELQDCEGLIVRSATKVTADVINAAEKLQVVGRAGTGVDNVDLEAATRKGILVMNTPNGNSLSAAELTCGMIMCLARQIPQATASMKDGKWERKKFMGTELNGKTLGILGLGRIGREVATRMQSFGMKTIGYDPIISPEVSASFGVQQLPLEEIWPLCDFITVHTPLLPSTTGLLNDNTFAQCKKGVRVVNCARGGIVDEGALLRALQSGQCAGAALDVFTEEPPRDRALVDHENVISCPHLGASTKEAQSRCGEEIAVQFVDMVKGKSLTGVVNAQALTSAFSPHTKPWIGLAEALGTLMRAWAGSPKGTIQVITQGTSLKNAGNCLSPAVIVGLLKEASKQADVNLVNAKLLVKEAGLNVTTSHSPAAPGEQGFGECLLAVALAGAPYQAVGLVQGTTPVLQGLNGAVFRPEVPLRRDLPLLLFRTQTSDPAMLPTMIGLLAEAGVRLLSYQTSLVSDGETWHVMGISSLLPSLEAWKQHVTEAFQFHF
UniProt Q16875: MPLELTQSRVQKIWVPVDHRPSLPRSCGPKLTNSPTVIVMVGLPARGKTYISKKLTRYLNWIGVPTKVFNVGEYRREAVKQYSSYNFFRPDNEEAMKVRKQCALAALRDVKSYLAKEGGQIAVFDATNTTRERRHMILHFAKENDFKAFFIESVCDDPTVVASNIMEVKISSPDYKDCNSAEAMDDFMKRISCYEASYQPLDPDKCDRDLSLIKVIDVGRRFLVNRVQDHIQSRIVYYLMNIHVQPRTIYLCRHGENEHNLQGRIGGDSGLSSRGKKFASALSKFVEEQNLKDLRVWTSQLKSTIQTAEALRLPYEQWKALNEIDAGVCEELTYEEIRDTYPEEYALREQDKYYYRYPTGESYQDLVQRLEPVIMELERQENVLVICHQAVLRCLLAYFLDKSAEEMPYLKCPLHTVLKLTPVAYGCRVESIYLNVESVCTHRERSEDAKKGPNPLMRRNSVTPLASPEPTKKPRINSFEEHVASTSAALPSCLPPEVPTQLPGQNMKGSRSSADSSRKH
UniProt Q9NRX4: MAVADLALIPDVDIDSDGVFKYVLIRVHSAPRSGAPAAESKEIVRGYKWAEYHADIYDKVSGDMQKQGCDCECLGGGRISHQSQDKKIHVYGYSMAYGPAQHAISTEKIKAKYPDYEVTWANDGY
UniProt Q8NEB9, whole entry: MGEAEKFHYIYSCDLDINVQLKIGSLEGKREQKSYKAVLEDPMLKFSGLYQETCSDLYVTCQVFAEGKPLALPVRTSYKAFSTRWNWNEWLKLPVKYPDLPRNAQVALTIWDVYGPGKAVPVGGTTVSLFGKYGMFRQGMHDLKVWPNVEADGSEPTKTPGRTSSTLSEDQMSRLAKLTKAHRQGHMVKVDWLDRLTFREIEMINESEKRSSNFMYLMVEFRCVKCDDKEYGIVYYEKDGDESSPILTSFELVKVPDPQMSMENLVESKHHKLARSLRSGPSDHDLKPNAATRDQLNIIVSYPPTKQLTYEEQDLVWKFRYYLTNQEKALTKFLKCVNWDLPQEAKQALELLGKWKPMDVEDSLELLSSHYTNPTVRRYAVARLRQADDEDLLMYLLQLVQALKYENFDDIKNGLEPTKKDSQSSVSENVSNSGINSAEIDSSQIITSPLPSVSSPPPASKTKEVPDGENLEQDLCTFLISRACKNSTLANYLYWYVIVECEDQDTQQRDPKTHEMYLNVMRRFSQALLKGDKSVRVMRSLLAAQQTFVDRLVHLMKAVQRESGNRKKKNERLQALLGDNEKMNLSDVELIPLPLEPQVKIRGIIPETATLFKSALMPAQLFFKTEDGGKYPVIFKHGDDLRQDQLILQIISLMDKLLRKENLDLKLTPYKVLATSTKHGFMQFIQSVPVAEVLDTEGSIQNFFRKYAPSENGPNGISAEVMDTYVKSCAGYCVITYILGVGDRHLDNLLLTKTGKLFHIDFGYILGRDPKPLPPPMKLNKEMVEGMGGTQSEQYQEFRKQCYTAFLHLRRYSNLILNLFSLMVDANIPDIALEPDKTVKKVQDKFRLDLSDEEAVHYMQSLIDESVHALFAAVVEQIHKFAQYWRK
UniProt Q8NBM8: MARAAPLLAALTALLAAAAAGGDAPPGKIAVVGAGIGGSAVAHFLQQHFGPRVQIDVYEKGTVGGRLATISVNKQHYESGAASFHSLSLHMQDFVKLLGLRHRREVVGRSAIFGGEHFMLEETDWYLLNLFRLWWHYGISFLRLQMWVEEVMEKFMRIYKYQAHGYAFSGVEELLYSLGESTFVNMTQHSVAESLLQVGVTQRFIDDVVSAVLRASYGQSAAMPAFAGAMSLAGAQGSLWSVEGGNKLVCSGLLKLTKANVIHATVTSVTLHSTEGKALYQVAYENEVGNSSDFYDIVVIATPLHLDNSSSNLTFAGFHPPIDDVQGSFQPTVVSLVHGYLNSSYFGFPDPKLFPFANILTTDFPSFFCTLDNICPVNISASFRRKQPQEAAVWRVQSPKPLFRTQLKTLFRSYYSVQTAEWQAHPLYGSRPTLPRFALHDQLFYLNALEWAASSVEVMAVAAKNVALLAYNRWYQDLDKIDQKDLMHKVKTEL
UniProt Q9BZF3: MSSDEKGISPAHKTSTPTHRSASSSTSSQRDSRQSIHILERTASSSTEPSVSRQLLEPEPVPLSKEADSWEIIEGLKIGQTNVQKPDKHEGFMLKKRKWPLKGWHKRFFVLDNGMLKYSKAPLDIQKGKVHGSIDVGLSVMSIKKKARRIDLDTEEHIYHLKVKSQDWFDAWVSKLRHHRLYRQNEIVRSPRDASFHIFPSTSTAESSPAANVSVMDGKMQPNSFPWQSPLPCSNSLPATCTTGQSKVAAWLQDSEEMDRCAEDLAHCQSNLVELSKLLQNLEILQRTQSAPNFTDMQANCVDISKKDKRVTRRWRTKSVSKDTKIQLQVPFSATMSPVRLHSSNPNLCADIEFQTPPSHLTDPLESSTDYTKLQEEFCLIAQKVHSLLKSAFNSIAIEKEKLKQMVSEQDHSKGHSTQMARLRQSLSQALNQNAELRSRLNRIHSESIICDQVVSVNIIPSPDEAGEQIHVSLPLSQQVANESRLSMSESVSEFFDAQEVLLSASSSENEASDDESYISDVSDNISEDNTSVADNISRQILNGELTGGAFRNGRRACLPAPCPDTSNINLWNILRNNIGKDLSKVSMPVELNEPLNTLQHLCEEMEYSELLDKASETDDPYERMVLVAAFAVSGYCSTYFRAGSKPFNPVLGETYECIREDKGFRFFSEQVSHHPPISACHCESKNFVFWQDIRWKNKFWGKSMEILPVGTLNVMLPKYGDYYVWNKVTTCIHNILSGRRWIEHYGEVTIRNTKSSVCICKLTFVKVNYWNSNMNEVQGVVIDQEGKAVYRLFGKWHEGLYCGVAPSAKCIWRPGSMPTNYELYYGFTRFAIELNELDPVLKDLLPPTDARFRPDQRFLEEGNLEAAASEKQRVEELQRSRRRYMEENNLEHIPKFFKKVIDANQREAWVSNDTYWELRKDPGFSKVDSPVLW
UniProt Q9BUL8: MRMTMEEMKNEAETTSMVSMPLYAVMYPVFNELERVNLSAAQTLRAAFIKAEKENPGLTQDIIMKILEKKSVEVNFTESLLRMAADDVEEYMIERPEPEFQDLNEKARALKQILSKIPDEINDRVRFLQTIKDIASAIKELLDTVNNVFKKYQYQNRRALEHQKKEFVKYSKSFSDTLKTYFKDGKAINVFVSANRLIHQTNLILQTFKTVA
UniProt P00558: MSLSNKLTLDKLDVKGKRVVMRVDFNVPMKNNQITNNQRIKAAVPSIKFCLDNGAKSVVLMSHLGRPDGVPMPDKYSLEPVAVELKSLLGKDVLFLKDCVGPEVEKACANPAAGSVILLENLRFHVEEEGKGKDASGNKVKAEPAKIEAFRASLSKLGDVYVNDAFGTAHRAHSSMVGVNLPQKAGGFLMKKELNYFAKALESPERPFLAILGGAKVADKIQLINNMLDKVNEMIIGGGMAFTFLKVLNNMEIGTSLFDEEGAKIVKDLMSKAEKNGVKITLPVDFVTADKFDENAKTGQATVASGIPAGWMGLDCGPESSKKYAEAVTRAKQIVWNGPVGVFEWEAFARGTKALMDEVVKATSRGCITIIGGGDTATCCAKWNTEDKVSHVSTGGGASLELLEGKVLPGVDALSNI
UniProt Q13416: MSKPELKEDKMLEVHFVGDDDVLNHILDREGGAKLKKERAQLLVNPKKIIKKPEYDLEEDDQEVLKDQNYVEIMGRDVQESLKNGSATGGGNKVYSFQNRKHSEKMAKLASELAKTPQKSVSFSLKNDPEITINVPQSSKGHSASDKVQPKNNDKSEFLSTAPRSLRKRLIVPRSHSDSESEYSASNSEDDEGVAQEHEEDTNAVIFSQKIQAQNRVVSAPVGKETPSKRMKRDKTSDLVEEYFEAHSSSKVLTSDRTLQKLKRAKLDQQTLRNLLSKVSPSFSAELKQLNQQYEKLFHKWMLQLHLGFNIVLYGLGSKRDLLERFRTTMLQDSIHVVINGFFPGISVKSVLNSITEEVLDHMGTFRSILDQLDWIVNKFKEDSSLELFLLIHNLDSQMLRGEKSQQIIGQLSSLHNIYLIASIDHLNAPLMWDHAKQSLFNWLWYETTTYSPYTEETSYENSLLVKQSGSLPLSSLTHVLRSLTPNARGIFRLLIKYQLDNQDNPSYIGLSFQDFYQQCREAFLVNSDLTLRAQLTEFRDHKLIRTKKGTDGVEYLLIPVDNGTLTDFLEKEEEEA
UniProt Q15084: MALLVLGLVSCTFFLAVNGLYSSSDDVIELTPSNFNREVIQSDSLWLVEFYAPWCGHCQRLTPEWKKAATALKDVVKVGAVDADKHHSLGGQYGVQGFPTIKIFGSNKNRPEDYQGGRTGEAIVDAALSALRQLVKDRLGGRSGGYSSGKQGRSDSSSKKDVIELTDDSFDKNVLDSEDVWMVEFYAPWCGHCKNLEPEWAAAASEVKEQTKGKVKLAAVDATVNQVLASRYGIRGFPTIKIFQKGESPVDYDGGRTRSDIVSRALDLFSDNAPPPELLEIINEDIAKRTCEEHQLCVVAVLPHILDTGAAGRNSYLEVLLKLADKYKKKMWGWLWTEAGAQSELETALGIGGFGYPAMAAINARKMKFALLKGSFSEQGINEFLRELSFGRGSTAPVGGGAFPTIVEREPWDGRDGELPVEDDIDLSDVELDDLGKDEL
UniProt O75167: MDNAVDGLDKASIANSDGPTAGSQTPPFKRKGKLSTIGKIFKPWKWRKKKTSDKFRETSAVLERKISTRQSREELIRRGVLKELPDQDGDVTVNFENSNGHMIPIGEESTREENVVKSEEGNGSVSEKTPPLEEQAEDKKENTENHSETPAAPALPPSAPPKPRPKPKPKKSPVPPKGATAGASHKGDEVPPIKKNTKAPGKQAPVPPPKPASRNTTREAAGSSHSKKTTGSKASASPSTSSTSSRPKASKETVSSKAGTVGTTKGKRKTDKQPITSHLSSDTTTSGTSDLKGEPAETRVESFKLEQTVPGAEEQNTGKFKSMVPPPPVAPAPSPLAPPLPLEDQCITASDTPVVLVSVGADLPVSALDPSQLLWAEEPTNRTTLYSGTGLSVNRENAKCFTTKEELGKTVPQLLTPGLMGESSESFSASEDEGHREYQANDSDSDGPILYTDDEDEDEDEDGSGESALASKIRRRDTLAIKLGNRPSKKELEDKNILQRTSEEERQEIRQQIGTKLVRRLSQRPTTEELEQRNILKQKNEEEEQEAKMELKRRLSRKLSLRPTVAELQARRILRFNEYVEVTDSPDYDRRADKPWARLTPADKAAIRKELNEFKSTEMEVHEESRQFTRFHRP
UniProt Q8TBX8: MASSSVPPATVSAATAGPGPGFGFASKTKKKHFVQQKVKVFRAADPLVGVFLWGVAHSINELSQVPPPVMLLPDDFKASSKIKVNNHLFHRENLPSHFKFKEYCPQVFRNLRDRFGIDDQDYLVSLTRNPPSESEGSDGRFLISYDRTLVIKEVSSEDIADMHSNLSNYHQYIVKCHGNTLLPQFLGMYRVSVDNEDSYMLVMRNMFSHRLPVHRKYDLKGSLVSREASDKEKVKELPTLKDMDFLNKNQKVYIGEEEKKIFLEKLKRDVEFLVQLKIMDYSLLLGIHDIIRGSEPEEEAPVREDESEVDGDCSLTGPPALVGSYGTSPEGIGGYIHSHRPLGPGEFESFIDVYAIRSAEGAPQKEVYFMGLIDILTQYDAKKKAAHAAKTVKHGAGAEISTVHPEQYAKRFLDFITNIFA
UniProt P53609, whole entry, looked up: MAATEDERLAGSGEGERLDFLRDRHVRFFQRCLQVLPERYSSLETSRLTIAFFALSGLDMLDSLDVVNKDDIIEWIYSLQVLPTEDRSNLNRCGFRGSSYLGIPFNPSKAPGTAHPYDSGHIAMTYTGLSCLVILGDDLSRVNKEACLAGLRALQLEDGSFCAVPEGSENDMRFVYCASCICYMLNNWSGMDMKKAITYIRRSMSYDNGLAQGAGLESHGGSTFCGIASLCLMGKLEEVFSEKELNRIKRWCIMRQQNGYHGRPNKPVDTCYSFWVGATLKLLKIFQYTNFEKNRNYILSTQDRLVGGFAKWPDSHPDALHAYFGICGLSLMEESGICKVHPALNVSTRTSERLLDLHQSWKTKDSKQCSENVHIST

This is one part of the list.

Compound in this test: COc1ccc(Cn2ccc3cc(C)c(C(=O)NO)cc32)cc1
In words: dose-dependent thermal stabilisation call (2D-TPP, DLPTP, 10% FDR) (binary (1 = stabilised)); higher = stabilised by the compound. Conditions: system: HL-60 intact cells; concentration range 0.04-10 µM. How it is done:
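2D thermal proteome profiling in intact HL-60 cells treated with BRD-3811 (0, 0.04, 0.29, 2, 10 uM) for 90 min at 37 C, then heated 3 min at one of 12 temperatures (42-63.9 C). Soluble protein was quantified by TMT10 MS. The value is the DLPTP call of the paper: dose-dependent thermal stabilisation over all temperatures at 10% FDR (F-test of a dose-response against a flat model); one experiment, one call per tested protein.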
As to PHGDH (UniProt O43175), the “dose-dependent thermal stabilisation call” value was active: 1. For PFKFB3 (UniProt Q16875), the “dose-dependent thermal stabilisation call” value is inactive: 0. For the target PHPT1 (UniProt Q9NRX4), the “dose-dependent thermal stabilisation call” value was inactive: 0. To PIK3C3 (UniProt Q8NEB9) belongs inactive: 0. PCYOX1L (UniProt Q8NBM8): the “dose-dependent thermal stabilisation call” value is active: 1.

On to OSBPL6 (UniProt Q9BZF3), for which the “dose-dependent thermal stabilisation call” value is inactive: 0. With PDCD10 (UniProt Q9BUL8), the “dose-dependent thermal stabilisation call” value was inactive: 0. As for PGK1 (UniProt P00558), the “dose-dependent thermal stabilisation call” value was inactive: 0. Consider ORC2L (UniProt Q13416), for which the “dose-dependent thermal stabilisation call” value was inactive: 0. For OGFR (UniProt Q9NZT2), the “dose-dependent thermal stabilisation call” value is inactive: 0.

On to PIP3AP (UniProt Q9C0I1), for which the “dose-dependent thermal stabilisation call” value was inactive: 0. For the target PDXK (UniProt O00764), the “dose-dependent thermal stabilisation call” value was inactive: 0. PDIA6 (UniProt Q15084): the “dose-dependent thermal stabilisation call” value was inactive: 0. PDCD6 (UniProt O75340): the “dose-dependent thermal stabilisation call” value is inactive: 0. Then PDIA4 (UniProt P13667), with inactive: 0. For the target PBRM1 (UniProt Q86U86), the “dose-dependent thermal stabilisation call” value was inactive: 0. As for PHACTR2 (UniProt O75167), the “dose-dependent thermal stabilisation call” value was inactive: 0. With PIP4K2C (UniProt Q8TBX8), the “dose-dependent thermal stabilisation call” value was inactive: 0. In the case of PARP14 (UniProt Q460N5), the “dose-dependent thermal stabilisation call” value was inactive: 0. Take PDE5A (UniProt O76074): the “dose-dependent thermal stabilisation call” value was inactive: 0. Consider PGGT1B (UniProt P53609), for which the “dose-dependent thermal stabilisation call” value is inactive: 0.

With PEX7 (UniProt O00628), the “dose-dependent thermal stabilisation call” value was inactive: 0. Take OSBPL3 (UniProt Q9H4L5): the “dose-dependent thermal stabilisation call” value was inactive: 0. As for PCBD2 (UniProt Q9H0N5), the “dose-dependent thermal stabilisation call” value was inactive: 0. Then PEA15 (UniProt Q15121), with inactive: 0; and PCBP2 (UniProt Q15366), with inactive: 0; and PDS5B (UniProt Q9NTI5), with inactive: 0.
